Laboratory results: doi:10.1101/2023.12.15.570541
These are yes or no findings as the source states them, for the method shown. For part of these data: In cells and extracts the contact can be indirect. Some binding calls cover weakened binding; strength is not graded here. Sequences can lack the tags named with a protein.

T1: MFSD1-strep (mouse Major Facilitator Superfamily Domain Containing 1 with N-terminal Twin-Streptavidin-tag) (mouse) (UniProt Q9DC37)
T1 sequence: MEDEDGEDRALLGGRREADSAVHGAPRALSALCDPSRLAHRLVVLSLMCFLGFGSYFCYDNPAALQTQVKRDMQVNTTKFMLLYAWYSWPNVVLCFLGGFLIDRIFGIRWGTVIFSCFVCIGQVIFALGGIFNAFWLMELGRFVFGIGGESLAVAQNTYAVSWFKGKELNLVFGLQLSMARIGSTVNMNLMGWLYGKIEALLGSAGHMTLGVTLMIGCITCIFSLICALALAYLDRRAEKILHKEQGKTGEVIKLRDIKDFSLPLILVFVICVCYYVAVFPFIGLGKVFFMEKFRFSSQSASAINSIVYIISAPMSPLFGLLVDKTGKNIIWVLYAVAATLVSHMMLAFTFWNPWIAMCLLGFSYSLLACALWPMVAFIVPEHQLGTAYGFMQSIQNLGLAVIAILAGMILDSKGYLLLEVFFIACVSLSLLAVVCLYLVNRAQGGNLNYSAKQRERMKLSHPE

T2: MFSD1 as it stands in the GLMP-MFSD1 fusion (cryo-EM structure) (mouse) (UniProt Q9DC37)
T2 sequence: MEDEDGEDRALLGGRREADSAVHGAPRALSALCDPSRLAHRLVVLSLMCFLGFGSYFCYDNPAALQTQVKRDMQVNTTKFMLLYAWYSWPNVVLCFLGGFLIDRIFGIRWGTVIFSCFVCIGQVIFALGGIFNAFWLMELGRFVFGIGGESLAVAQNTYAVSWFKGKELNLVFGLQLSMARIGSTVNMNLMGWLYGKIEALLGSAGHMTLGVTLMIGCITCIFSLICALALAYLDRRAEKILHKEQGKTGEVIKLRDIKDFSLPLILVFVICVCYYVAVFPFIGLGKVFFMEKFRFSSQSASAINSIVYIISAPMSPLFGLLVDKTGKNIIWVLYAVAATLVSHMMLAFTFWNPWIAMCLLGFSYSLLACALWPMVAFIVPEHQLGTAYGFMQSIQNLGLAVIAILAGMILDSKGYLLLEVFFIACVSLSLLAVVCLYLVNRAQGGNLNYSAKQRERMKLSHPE

B1: GLMP-Ct-His-GFP (mouse Glycosylated Lysosomal Membrane Protein with C-terminal TEV site, GFP and 8xHis) (protein, UniProt Q9JHJ3 36-404)
chain: EETRQVSMEVISGWPNPQNLLHIRAVGSNSTLHYVWSSLGPPAVVLVATNTTQSVLSVNWSLLLSPDPAGALMVLPKSSIQFSSALVFTRLLEFDSTNASEGAQPPGKPYPPYSLAKFSWNNITNSLDLANLSADFQGRPVDDPTGAFANGSLTFKVQAFSRSGRPAQPPRLLHTADVCQLEVALVGASPRGNHSLFGLEVATLGQGPDCPSVNERNSIDDEYAPAVFQLNQLLWGSSPSGFMQWRPVAFSEEERARESALPCQASTLHSTLASSLPHSPIVQAFFGSQNNFCAFNLTFGAPTGPGYWDQYYLCWSMLLGMGFPPVDIFSPLVLGIMAVALGAPGLMFLGGGLFLLLRHRRYSEYQSIN
modifications: N-glycosylated
B2: GLMP as it stands in the GLMP-MFSD1 fusion (cryo-EM structure) (protein, UniProt Q9JHJ3 36-391)
chain: EETRQVSMEVISGWPNPQNLLHIRAVGSNSTLHYVWSSLGPPAVVLVATNTTQSVLSVNWSLLLSPDPAGALMVLPKSSIQFSSALVFTRLLEFDSTNASEGAQPPGKPYPPYSLAKFSWNNITNSLDLANLSADFQGRPVDDPTGAFANGSLTFKVQAFSRSGRPAQPPRLLHTADVCQLEVALVGASPRGNHSLFGLEVATLGQGPDCPSVNERNSIDDEYAPAVFQLNQLLWGSSPSGFMQWRPVAFSEEERARESALPCQASTLHSTLASSLPHSPIVQAFFGSQNNFCAFNLTFGAPTGPGYWDQYYLCWSMLLGMGFPPVDIFSPLVLGIMAVALGAPGLMFLGGGLFLL
modifications: N-glycans on Asn85, Asn94, Asn157, Asn228 and Asn331

Assays:
[1] = biological target: T1, MFSD1-strep (mouse Major Facilitator Superfamily Domain Containing 1 with N-terminal Twin-Streptavidin-tag) (mouse); experiment: pull-down
[2] = biological target: T1, MFSD1-strep (mouse Major Facilitator Superfamily Domain Containing 1 with N-terminal Twin-Streptavidin-tag) (mouse); experiment: tandem affinity co-purification + SEC
[3] = biological target: T2, MFSD1 as it stands in the GLMP-MFSD1 fusion (cryo-EM structure) (mouse); experiment: cryo-EM structure

Binder	binding [1]	binding [2]	binding [3]
B1	binds	binds	–
B2	–	–	binds
